Laboratory results published in US8901118B2, “Compounds and methods for kinase modulation, and indications therefor” (Plexxikon Inc., priority 2010, dated 2014).
Some entries share one result that the patent states for a list of compounds.

System: Osteoclast precursor cells
Assay: Osteoclast differentiation assay (acid phosphatase readout)
Format: cell-based
Method: Further, an osteoclast differentiation assay is used to assess the efficacy of Fms inhibitors for treating bone disease such as osteoarthritis. On day 0, Osteoclast Medium BulletKit (Lonza catalog #PT-8001, containing Media, FBS, L-Glutamine, PenStrep, RANKL, and M-CSF) media is thawed and the FBS, L-glutamine and PenStrep from the kit is added to 100 mL of Osteoclast Precursor Basal medium to provide the Osteoclast Precursor Growth Medium (OPGM). This is warmed to 37° C. Osteoclast precursor cells (Lonza catalog #2T-110) frozen in cryovial are warmed to 37° C. and transferred to a 50 mL conical tube. The cryovial is rinsed with OPGM and added dropwise to the conical tube of cells with swirling, then the volume is adjusted to 20-30 mL with addition of OPGM. The cells are centrifuged at 200×g for 15 minutes at room temperature and all but approximately 3 mL of supernatant is removed to a new conical tube. The cells are suspended in the remaining supernatant and the volume is adjusted to 10-15 mL with OPGM added dropwise with swirling. The cells are centrifuged at 200×g for 15 minutes at room temperature and all but approximately 1 mL of supernatant is removed. The cells are resuspended in the remaining supernatant, counted, and the volume adjusted with an appropriate amount of OPGM to provide approximately 1×10^5 cells/mL. A 0.1 mL aliquot of cells is added to each well of a 96-well plate. Compound to be tested is prepared in DMSO for plating at a high concentration of 2.5 mM, with 8 point 1:3 serial dilutions. A 1 μL aliquot of each compound dilution is added to a 96 well v-bottom polypropylene plate and 0.124 mL of OPGM is added to the compound. Then 50 μL at of the compound in OPGM is added to the osteoclast precursor cells in 96-well plate (providing highest test concentration of 5 μM). RANKL (2 μg) from the BulletKit is reconstituted in 1 mL of OPGM, then vortexed and centrifuged briefly. A 792 μL at aliquot of RANKL is added to 6 mL of OPGM and 50 μL at is added to low control wells. Then 76.6 μL M-CSF (10 μg/mL) from the BulletKit is added to the remaining 5.8 mL of OPGM/RANKL solution (4×RANKL/M-CSF/OPGM). A 50 μL at aliquot of this is added to the remaining wells, and the remainder is stored at 4° C. for later use. The plate is incubated at 37° C. for 6 days, then the remaining OPGM/RANKL/M-CSF solution is warmed to 37° C. The remaining approximately 198 μL is combined with 6 mL of OPGM. The media is aspirated from the osteoclast wells and 100 μL of RANKL/OPGM is added to the low controls. The remaining RANKL/OPGM is combined with the approximately 18.5 μL of remaining M-CSF. The remaining 4×RANKL/M-CSF/OPGM from day 0 is diluted to 1× and combined with the freshly prepared solution. A 0.1 mL aliquot of this is added to each osteoclast well and incubated for 37° C. for 1 day. The Acid Phosphatase kit (Cayman Chemical catalog #10008051) is warmed to room temperature. The assay buffer is diluted 5 mL with 45 mL of water. For each plate, two substrate tablets are dissolved in 4.5 mL of the assay buffer, mixing by vortex to break up the tablet. Stop solution is diluted 12 mL with 36 mL of water. In a tissue culture hood, 20 μL of each osteoclast well supernatant is transferred to a 96 well plate. A 30 μL aliquot of the substrate solution is added to each well and incubated at 37° C. for 20 minutes, then added 100 μL stop solution to each well. The absorbance of each well is read at 405 nm on Safire plate reader. The absorbance reading is plotted vs. concentration to provide the IC50 for each compound.

SMILES	activity in the osteoclast differentiation assay
CCOc1ccc(Nc2ccc(C(=O)c3c[nH]c4ncnc(OC)c34)c(F)n2)cn1 [Compound P-4024, [6-(6-Ethoxy-pyridin-3-ylamino)-2-fluoro-pyridin-3-yl]-(4-methoxy-7H-pyrrolo[2,3-d]pyrimidin-5-yl)-methanone]	showed activity
CCc1ccc(Nc2ccc(C(=O)c3c[nH]c4ncnc(C5CC5)c34)c(F)n2)cn1 [Compound P-4029, (4-Cyclopropyl-7H-pyrrolo[2,3-d]pyrimidin-5-yl)-[6-(6-ethyl-pyridin-3-ylamino)-2-fluoro-pyridin-3-yl]-methanone]	showed activity
CCc1ccc(Nc2ccc(Cc3c[nH]c4ncnc(C5CC5)c34)c(F)n2)cn1 [Compound P-4028, [5-(4-Cyclopropyl-7H-pyrrolo[2,3-d]pyrimidin-5-ylmethyl)-6-fluoro-pyridin-2-yl]-(6-ethyl-pyridin-3-yl)-amine]	showed activity
O=C(c1cnc(NC2CCC(F)(F)CC2)c(F)c1)c1c[nH]c2ncnc(NC3CC3)c12 [Compound P-4053, [4-(cyclopropylamino)-7H-pyrrolo[2,3-d]pyrimidin-5-yl]-[6-[(4,4-difluorocyclohexyl)amino]-5-fluoro-3-pyridyl]methanone]	showed activity
CCc1ccc(Nc2ccc(C(=O)c3c[nH]c4ncnc(NC5CCC5)c34)c(F)n2)cn1 [Compound P-4095, [4-(cyclobutylamino)-7H-pyrrolo[2,3-d]pyrimidin-5-yl]-[6-[(6-ethyl-3-pyridyl)amino]-2-fluoro-3-pyridyl]methanone]	showed activity
CC(C)(O)CNc1ncnc2[nH]cc(C(=O)c3ccc(Nc4ccc(C5CC5)nc4)nc3F)c12 [Compound P-4049, [6-[(6-cyclopropyl-3-pyridyl)amino]-2-fluoro-3-pyridyl]-[4-[(2-hydroxy-2-methyl-propyl)amino]-7H-pyrrolo[2,3-d]pyrimidin-5-yl]methanone]	showed activity
COCCCNc1ncnc2[nH]cc(C(=O)c3ccc(Nc4ccc(OC)nc4)nc3F)c12 [Compound P-4079, [2-fluoro-6-[(6-methoxy-3-pyridyl)amino]-3-pyridyl]-[4-(3-methoxypropylamino)-7H-pyrrolo[2,3-d]pyrimidin-5-yl]methanone]	showed activity
CNc1ncnc2[nH]cc(C(=O)c3ccc(NC4CCCCC4)nc3F)c12 [Compound P-4102, [6-(cyclohexylamino)-2-fluoro-3-pyridyl]-[4-(methylamino)-7H-pyrrolo[2,3-d]pyrimidin-5-yl]methanone]	showed activity
COc1ccc(Nc2ccc(Cc3c[nH]c4ncnc(OC)c34)c(F)n2)cn1 [Compound P-4001, [6-Fluoro-5-(4-methoxy-7H-pyrrolo[2,3-d]pyrimidin-5-ylmethyl)-pyridin-2-yl]-(6-methoxy-pyridin-3-yl)-amine]	showed activity
COc1ccc(Nc2ccc(C(=O)c3c[nH]c4ncnc(NCC(F)(F)F)c34)c(F)n2)cn1 [Compound P-4084, [2-fluoro-6-[(6-methoxy-3-pyridyl)amino]-3-pyridyl]-[4-(2,2,2-trifluoroethylamino)-7H-pyrrolo[2,3-d]pyrimidin-5-yl]methanone]	showed activity
COc1ccc(Nc2ccc(C(=O)c3c[nH]c4ncnc(NC(C)C)c34)c(F)n2)cn1 [Compound P-4066, [2-fluoro-6-[(6-methoxy-3-pyridyl)amino]-3-pyridyl]-[4-(isopropylamino)-7H-pyrrolo[2,3-d]pyrimidin-5-yl]methanone]	showed activity
CNc1ncnc2[nH]cc(C(=O)c3ccc(Nc4ccc(C)nc4)nc3F)c12 [Compound P-4115, [2-fluoro-6-[(6-methyl-3-pyridyl)amino]-3-pyridyl]-[4-(methylamino)-7H-pyrrolo[2,3-d]pyrimidin-5-yl]methanone]	showed activity
Cc1ncnc2[nH]cc(Cc3ccc(Nc4ccc(C5CC5)nc4)nc3F)c12 [Compound P-4044, (6-Cyclopropyl-pyridin-3-yl)-[6-fluoro-5-(4-methyl-7H-pyrrolo[2,3-d]pyrimidin-5-ylmethyl)-pyridin-2-yl]-amine]	showed activity
CCOc1ccc(Nc2ccc(Cc3c[nH]c4ncnc(C5CC5)c34)c(F)n2)cn1 [Compound P-4026, [5-(4-Cyclopropyl-7H-pyrrolo[2,3-d]pyrimidin-5-ylmethyl)-6-fluoro-pyridin-2-yl]-(6-ethoxy-pyridin-3-yl)-amine]	showed activity
O=C(c1ccc(NC2CCC(F)(F)CC2)nc1F)c1c[nH]c2ncnc(NCC(F)(F)F)c12 [Compound P-4061, [6-[(4,4-difluorocyclohexyl)amino]-2-fluoro-3-pyridyl]-[4-(2,2,2-trifluoroethylamino)-7H-pyrrolo[2,3-d]pyrimidin-5-yl]methanone]	showed activity
CCCNc1ncnc2[nH]cc(C(=O)c3ccc(Nc4cncc(OC)c4)nc3F)c12 [Compound P-4105, [2-fluoro-6-[(5-methoxy-3-pyridyl)amino]-3-pyridyl]-[4-(propylamino)-7H-pyrrolo[2,3-d]pyrimidin-5-yl]methanone]	showed activity
Cc1ccc(Nc2ccc(Cc3c[nH]c4ncc(Cl)cc34)c(F)n2)cn1 [Compound P-3042, [5-(5-Chloro-1H-pyrrolo[2,3-b]pyridin-3-ylmethyl)-6-fluoro-pyridin-2-yl]-(6-methyl-pyridin-3-yl)-amine]	showed activity
COc1ccc(Nc2ccc(C(=O)c3c[nH]c4ncc(C)cc34)c(F)n2)cn1 [Compound P-3040, [2-Fluoro-6-(6-methoxy-pyridin-3-ylamino)-pyridin-3-yl]-(5-methyl-1H-pyrrolo[2,3-b]pyridin-3-yl)-methanone]	showed activity
CCc1ccc(Nc2ccc(C(=O)c3c[nH]c4ncnc(NC5CC5)c34)c(F)n2)cn1 [Compound P-4125, [4-(cyclopropylamino)-7H-pyrrolo[2,3-d]pyrimidin-5-yl]-[6-[(6-ethyl-3-pyridyl)amino]-2-fluoro-3-pyridyl]methanone]	showed activity
COc1ncnc2[nH]cc(Cc3ccc(Nc4ccc(C5CC5)nc4)nc3F)c12 [Compound P-4004, (6-Cyclopropyl-pyridin-3-yl)-[6-fluoro-5-(4-methoxy-7H-pyrrolo[2,3-d]pyrimidin-5-ylmethyl)-pyridin-2-yl]-amine]	showed activity
COc1ccc(Nc2ccc(C(=O)c3c[nH]c4ncnc(NCC5CC5)c34)c(F)n2)cn1 [Compound P-4067, [4-(cyclopropylmethylamino)-7H-pyrrolo[2,3-d]pyrimidin-5-yl]-[2-fluoro-6-[(6-methoxy-3-pyridyl)amino]-3-pyridyl]methanone]	showed activity
O=C(c1ccc(Nc2cnc3c(c2)CCC3)nc1F)c1c[nH]c2ncnc(C3CC3)c12 [Compound P-4043, (4-Cyclopropyl-7H-pyrrolo[2,3-d]pyrimidin-5-yl)-[6-(6,7-dihydro-5H-[1]pyrindin-3-ylamino)-2-fluoro-pyridin-3-yl]-methanone]	showed activity
CCn1cc(Nc2ccc(Cc3c[nH]c4ncnc(OC)c34)c(F)n2)cn1 [Compound P-4011, (1-Ethyl-1H-pyrazol-4-yl)-[6-fluoro-5-(4-methoxy-7H-pyrrolo[2,3-d]pyrimidin-5-ylmethyl)-pyridin-2-yl]-amine]	showed activity
